The results are deposited in PubChem (AID1053133; Broad Institute, 2014).

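Vaccinia-infected cells with a two-color viral stage reporter; Venus fluorescence read on a plate reader; the cell line is not named here; timing not stated here. The test concentration is not given here. Percent change in Venus reporter signal; lower (more negative) values mean stronger inhibition of that viral stage.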

Values are in %. The controls that fix the scale are not given here. Common to all entries: measured here: Venus reporter, other viral stage. This is a side read-out of the assay, for part of the compounds, not drawn at random.

For C[C@H]1CN([C@@H](C)CO)C(=O)Cc2cc(NC(=O)Nc3ccc(F)cc3)ccc2O[C@H]1CN(C)Cc1ccncc1 the result was activity change (Venus) -48.59%. CC(C)CC#Cc1ccc2c(c1)O[C@H](CN(C)C(=O)Nc1ccccc1)[C@H](C)CN([C@@H](C)CO)S2(=O)=O gave activity change (Venus) -40.14%. O=C(C1CCCCC1)N1C[C@@H]2N[C@H](C1)C2c1ccc(-c2ccccc2F)cc1 (some centres unmarked) read activity change (Venus) -83.16%. For COc1cccc(NC(=O)N2[C@H](CO)[C@@H](c3ccccc3)[C@H]2CNCC(C)C)c1 the result was activity change (Venus) -11.23%. Result for C[C@H]1CN([C@@H](C)CO)S(=O)(=O)c2ccc(/C=C/c3ccccc3)cc2O[C@@H]1CN(C)Cc1ccccc1 was activity change (Venus) -88.56%. For Cc1noc(C)c1NC(=O)N(C)C[C@@H]1Oc2cc(C#CCC(C)C)ccc2S(=O)(=O)N([C@H](C)CO)C[C@H]1C the result was activity change (Venus) -45.14%. For Cn1cnc(S(=O)(=O)N2CCCCN3[C@H](C2)[C@H](c2ccc(-c4ccccc4F)cc2)[C@@H]3CO)c1 the result was activity change (Venus) -41.84%.

C[C@@H]1CN([C@@H](C)CO)C(=O)c2cc(C#CCN(C)C)cnc2O[C@H]1CN(C)Cc1ccc(-c2ccccc2)cc1 gave activity change (Venus) -42.86%. Result for C[C@H]1CCCCO[C@H](CN(C)Cc2ccccc2)[C@@H](C)CN([C@@H](C)CO)C(=O)c2cc(NS(=O)(=O)c3cccs3)ccc2O1 was activity change (Venus) -40.98%. C[C@@H]1CN([C@H](C)CO)C(=O)Cc2cc(NS(=O)(=O)c3cccs3)ccc2O[C@@H]1CN(C)Cc1ccc(Cl)c(Cl)c1 read activity change (Venus) -30.62%. With COc1ccc(CN(C)C[C@@H]2OCCCC[C@@H](C)Oc3ccc(NC(=O)Nc4ccc(F)cc4)cc3C(=O)N([C@@H](C)CO)C[C@H]2C)cc1 the assay gave activity change (Venus) -46.86%. C[C@@H]1CN([C@H](C)CO)C(=O)c2cccc(NC(=O)c3ccncc3)c2O[C@H]1CN(C)Cc1ccc(Oc2ccccc2)cc1 read activity change (Venus) -40.77%. COc1ccc(S(=O)(=O)N(C)C[C@@H]2OCCCC[C@H](C)Oc3ccc(NC(=O)C4CCCCC4)cc3C(=O)N([C@H](C)CO)C[C@@H]2C)cc1 gave activity change (Venus) -20.24%. For CC(C)CC#Cc1ccc2c(c1)O[C@H](CN(C)C(=O)c1ccccc1)[C@H](C)CN([C@@H](C)CO)S2(=O)=O the result was activity change (Venus) -57.67%.

C[C@@H]1CN([C@H](C)CO)C(=O)c2cc(/C=C/c3ccccc3)cnc2O[C@@H]1CN(C)Cc1ccccc1F read activity change (Venus) -32.08%. COCC(=O)N(C)C[C@@H]1Oc2cc(C#CCC3CCCC3)ccc2S(=O)(=O)N([C@H](C)CO)C[C@@H]1C read activity change (Venus) -54.17%. O=C(C[C@@H]1CC[C@@H]2[C@H](COC[C@@H](O)CN2Cc2ccc(C(F)(F)F)cc2)O1)N1CCc2ccccc2C1 read activity change (Venus) -37.12%. With COc1ccc(NC(=O)N2CCCCN3[C@H](CO)[C@@H](c4ccc(-c5ccccc5F)cc4)[C@H]3C2)cc1 the assay gave activity change (Venus) -66.76%. C[C@@H]1CN([C@H](C)CO)C(=O)c2cc(NC(=O)Nc3ccccc3)ccc2O[C@@H]1CN(C)Cc1ccc(C(F)(F)F)cc1 gave activity change (Venus) -26.48%. C[C@H](CO)N1C[C@H](C)[C@H](CN(C)Cc2ccc3c(c2)OCO3)Oc2c(NC(=O)Nc3ccccc3)cccc2C1=O read activity change (Venus) -34.68%. For Cc1ccc(S(=O)(=O)Nc2ccc3c(c2)C(=O)N([C@H](C)CO)C[C@H](C)[C@@H](CN(C)S(=O)(=O)c2c(C)noc2C)OCCCC[C@H](C)O3)cc1 the result was activity change (Venus) -38.64%.

For COc1ccccc1S(=O)(=O)N(C)C[C@H]1Oc2cc(C#CCC(C)C)ccc2S(=O)(=O)N([C@@H](C)CO)C[C@@H]1C the result was activity change (Venus) -57.43%. For C[C@@H]1CN([C@@H](C)CO)C(=O)c2cc(NC(=O)Nc3ccccc3)ccc2O[C@@H]1CN(C)Cc1ccc2c(c1)OCO2 the result was activity change (Venus) -25.07%. With C[C@@H]1CCCCO[C@@H](CN(C)S(=O)(=O)c2ccc(Cl)cc2)[C@H](C)CN([C@H](C)CO)C(=O)c2cc(NS(=O)(=O)c3cccs3)ccc2O1 the assay gave activity change (Venus) -39.64%. For C[C@@H]1CN([C@@H](C)CO)C(=O)c2cc(NC(=O)Nc3cccc4ccccc34)ccc2O[C@@H](C)CCCCO[C@H]1CN(C)Cc1ccccc1 the result was activity change (Venus) -29.87%. For C[C@H](CO)N1C[C@H](C)[C@@H](CN(C)Cc2ccc(Cl)c(Cl)c2)Oc2ccc(NC(=O)NC3CCCCC3)cc2C1=O the result was activity change (Venus) -24.44%. For C/C=C/c1ccc([C@H]2[C@H](CO)N(c3nc(CC)cs3)[C@H]2CNC(C)C)cc1 the result was activity change (Venus) -48.89%. COc1ccc(S(=O)(=O)N(C)C[C@@H]2OCCCC[C@@H](C)Oc3ccc(NS(=O)(=O)c4ccc(C)cc4)cc3C(=O)N([C@@H](C)CO)C[C@H]2C)cc1 read activity change (Venus) -48.1%.

Result for COc1ccc(CN(C)C[C@@H]2Oc3ccc(NC(=O)Nc4ccc(F)cc4)cc3CC(=O)N([C@@H](C)CO)C[C@@H]2C)cc1 was activity change (Venus) -33.43%.

Once more, the final 3:

C/C=C/c1ccc([C@H]2[C@H](CO)N(c3nc(CC)cs3)[C@H]2CNC(C)C)cc1 gave activity change (Venus) -48.89%.
COc1ccc(S(=O)(=O)N(C)C[C@@H]2OCCCC[C@@H](C)Oc3ccc(NS(=O)(=O)c4ccc(C)cc4)cc3C(=O)N([C@@H](C)CO)C[C@H]2C)cc1 gave activity change (Venus) -48.1%.
COc1ccc(CN(C)C[C@@H]2Oc3ccc(NC(=O)Nc4ccc(F)cc4)cc3CC(=O)N([C@@H](C)CO)C[C@@H]2C)cc1 gave activity change (Venus) -33.43%.